Patent publication US20030109418A1, “Methods for identifying compounds for inhibition of neoplastic lesions, and pharmaceutical compositions containing such compounds” (priority 1999, published 2003)
Some of these results come from one statement about several compounds together.

Tested on: cGMP PDE purified from human colon HT-29 cultured tumor cells
Test: cGMP PDE inhibition assay
Type: biochemical

Question: For `COc1cc(C=C2C(C)=C(CC(=O)O)c3cc(F)ccc32)cc(OC)c1OC` [Compound B, (Z)-5-Fluoro-2-methyl-1-(3,4,5-trimethoxybenzylidene)-3-acetic acid], which “cGMP PDE inhibition at 20 μM” value (20 μM) is on record?
Answer: The value was “greater than 50%”.

Question: For `COc1cc(/C=C2/C(C)=C(CC(=O)NCc3ccccc3)c3cc(F)ccc32)cc(OC)c1OC` [Compound E, (Z)-5-Fluoro-2-methyl-1-(3,4,5-trimethoxybenzylidene)-3-indenylacetamide, N-benzyl], which “cGMP PDE inhibitory activity, % Inhibition at 10 μM” value (10 μM, listed as compound E) is on record?
Answer: The value was “greater than 50%”.
